{"source": "paper PMC12040169", "about": "(PLOS Biology, 2025)", "note": "The other results are listed elsewhere or left out."}
{"test_system": "T1, CTL2-GFP (C. trachomatis L2/434/Bu, GFP-expressing)", "T1 construct": "L2/434/Bu, GFP-expressing", "parameters": "species or system HeLa; Intracellular C. trachomatis growth in HeLa cells, bulk GFP fluorescence relative to DMSO", "conditions": "bulk GFP, single well; 28.5 h, 10 µM; inhibitor", "units": {"% of control remaining": "%"}}
{"smiles": "Clc1ccccc1-c1nccnc1OC(c1ccccc1)c1ccccc1", "note": "[CBK107002]", "% of control remaining": 69.0632}
{"smiles": "CC(C)(C)C(=O)NCCn1nc(-c2cccs2)ccc1=O", "note": "[CBK283839]", "% of control remaining": 93.1545}
{"smiles": "Cc1nc(-c2cccnc2)[nH]c(=O)c1CC(=O)N(C)CC1CCCCC1", "note": "[CBK305785]", "% of control remaining": 130.677}
{"smiles": "CCC(c1cccc(OC)c1)N(C)C(=O)CC1CCN(c2nc(C)cc(C)n2)CC1", "note": "(stereo not shown) [CBK286255]", "% of control remaining": 123.944}
{"smiles": "Cc1cc(NC(=O)c2ccc(C(C)(C)C)cc2)nc2c1c(=O)oc1ccccc12", "note": "[CBK291200]", "% of control remaining": 85.471}
{"smiles": "O=C(O)c1ccccc1-c1ccc(-c2cc(C(=O)O)c3cc(Cl)ccc3n2)o1", "note": "[CBK268699]", "% of control remaining": 124.243}
{"smiles": "O=C(Cn1nnc2ccccc2c1=O)NC(Cc1ccccc1)c1ccccc1", "note": "(stereo not shown) [CBK296933]", "% of control remaining": 172.452}
{"smiles": "CC(Oc1cccc2ccccc12)C(=S)N(C)c1ccccc1", "note": "(stereo not shown) [CBK016158]", "% of control remaining": 49.663}
{"smiles": "c1ccc2nc(N3CCCC3)c(OC3CCNC3)nc2c1", "note": "(stereo not shown) [CBK115288]", "% of control remaining": 119.385}
{"smiles": "CCN(Cc1ccccc1)C(=O)NCCCN1CCN(C)CC1", "note": "[CBK155212]", "% of control remaining": 108.28}
{"smiles": "O=C1C[C@@H]2CCN(C(=O)NC3CCCCC3)C[C@@H]2CCN1CCN1CCNC1=O", "note": "[CBK288796]", "% of control remaining": 126.779}
{"smiles": "Cc1c(F)cccc1CN(CCCN)C(=O)Nc1ccccc1C(C)(C)C", "note": "[CBK034699C]", "% of control remaining": 160.147}
{"smiles": "COc1ccc(/C=C2\\S/C(=N\\Cc3ccccc3)N(Cc3ccccc3)C2=O)cc1C(=O)O", "note": "[CBK262715]", "% of control remaining": 113.847}
{"smiles": "O=C(Nc1ccc(S(=O)(=O)N2CCCCCC2)cc1)c1nc2ncccn2n1", "note": "[CBK266155]", "% of control remaining": 154.701}
{"smiles": "O=C(c1csnn1)N1Cc2ccccc2C1", "note": "[CBK200325]", "% of control remaining": 131.819}
{"smiles": "Cc1ccc(SCCN2CCN(C)CC2)cc1", "note": "[CBK269631C]", "% of control remaining": 123.615}
{"smiles": "CC1CCc2n[nH]c(C(=O)N3CCc4ncc(Cl)cc4C3)c2C1", "note": "(stereo not shown) [CBK284874]", "% of control remaining": 151.418}
{"smiles": "Cc1cccc(CC(=O)N2CCC(Cc3cccc(-c4cccs4)c3)(C(N)=O)CC2)c1", "note": "[CBK285752]", "% of control remaining": 171.731}
{"smiles": "CN1CCOCC(CNC(=O)c2ccc(-c3cnc(N)nc3)cc2)C1", "note": "(stereo not shown) [CBK307119]", "% of control remaining": 130.669}
{"smiles": "Cc1ccc(C2CCC(C(=O)O)C(C(=O)O)C2)cc1C", "note": "(stereo not shown) [CBK287184]", "% of control remaining": 114.71}
{"smiles": "COc1ccc(CCN(C)Cc2ccccn2)cc1OC", "note": "[CBK261912]", "% of control remaining": 100}
{"smiles": "CCOc1ccc(-c2cn(S(=O)(=O)c3cccc4nsnc34)nc2N)cc1", "note": "[CBK267883]", "% of control remaining": 80.0568}
